Measurements reported in the supplement of paper PMC12819154, “High-throughput peptide-centric local stability assay extends protein–ligand identification to membrane proteins, tissues and bacteria” (Nature Structural & Molecular Biology, 2025).
The other results are listed elsewhere or left out. Most entries show no effect beyond the scatter of the controls.

Sequences of proteins named here, by UniProt entry; tags and fusion partners are left off. A change or cut given only in a name is not applied to a line headed by its entry.
UniProt P56212: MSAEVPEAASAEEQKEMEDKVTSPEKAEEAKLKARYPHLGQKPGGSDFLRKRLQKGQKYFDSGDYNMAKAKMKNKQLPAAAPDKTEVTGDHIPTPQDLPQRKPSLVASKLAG
UniProt P56389: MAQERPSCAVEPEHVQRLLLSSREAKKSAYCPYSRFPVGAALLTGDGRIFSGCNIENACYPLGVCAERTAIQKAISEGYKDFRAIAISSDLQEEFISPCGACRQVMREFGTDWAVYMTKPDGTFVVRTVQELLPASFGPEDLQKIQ
UniProt P56382: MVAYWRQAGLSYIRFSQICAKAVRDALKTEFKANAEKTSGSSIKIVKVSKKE
UniProt P55937: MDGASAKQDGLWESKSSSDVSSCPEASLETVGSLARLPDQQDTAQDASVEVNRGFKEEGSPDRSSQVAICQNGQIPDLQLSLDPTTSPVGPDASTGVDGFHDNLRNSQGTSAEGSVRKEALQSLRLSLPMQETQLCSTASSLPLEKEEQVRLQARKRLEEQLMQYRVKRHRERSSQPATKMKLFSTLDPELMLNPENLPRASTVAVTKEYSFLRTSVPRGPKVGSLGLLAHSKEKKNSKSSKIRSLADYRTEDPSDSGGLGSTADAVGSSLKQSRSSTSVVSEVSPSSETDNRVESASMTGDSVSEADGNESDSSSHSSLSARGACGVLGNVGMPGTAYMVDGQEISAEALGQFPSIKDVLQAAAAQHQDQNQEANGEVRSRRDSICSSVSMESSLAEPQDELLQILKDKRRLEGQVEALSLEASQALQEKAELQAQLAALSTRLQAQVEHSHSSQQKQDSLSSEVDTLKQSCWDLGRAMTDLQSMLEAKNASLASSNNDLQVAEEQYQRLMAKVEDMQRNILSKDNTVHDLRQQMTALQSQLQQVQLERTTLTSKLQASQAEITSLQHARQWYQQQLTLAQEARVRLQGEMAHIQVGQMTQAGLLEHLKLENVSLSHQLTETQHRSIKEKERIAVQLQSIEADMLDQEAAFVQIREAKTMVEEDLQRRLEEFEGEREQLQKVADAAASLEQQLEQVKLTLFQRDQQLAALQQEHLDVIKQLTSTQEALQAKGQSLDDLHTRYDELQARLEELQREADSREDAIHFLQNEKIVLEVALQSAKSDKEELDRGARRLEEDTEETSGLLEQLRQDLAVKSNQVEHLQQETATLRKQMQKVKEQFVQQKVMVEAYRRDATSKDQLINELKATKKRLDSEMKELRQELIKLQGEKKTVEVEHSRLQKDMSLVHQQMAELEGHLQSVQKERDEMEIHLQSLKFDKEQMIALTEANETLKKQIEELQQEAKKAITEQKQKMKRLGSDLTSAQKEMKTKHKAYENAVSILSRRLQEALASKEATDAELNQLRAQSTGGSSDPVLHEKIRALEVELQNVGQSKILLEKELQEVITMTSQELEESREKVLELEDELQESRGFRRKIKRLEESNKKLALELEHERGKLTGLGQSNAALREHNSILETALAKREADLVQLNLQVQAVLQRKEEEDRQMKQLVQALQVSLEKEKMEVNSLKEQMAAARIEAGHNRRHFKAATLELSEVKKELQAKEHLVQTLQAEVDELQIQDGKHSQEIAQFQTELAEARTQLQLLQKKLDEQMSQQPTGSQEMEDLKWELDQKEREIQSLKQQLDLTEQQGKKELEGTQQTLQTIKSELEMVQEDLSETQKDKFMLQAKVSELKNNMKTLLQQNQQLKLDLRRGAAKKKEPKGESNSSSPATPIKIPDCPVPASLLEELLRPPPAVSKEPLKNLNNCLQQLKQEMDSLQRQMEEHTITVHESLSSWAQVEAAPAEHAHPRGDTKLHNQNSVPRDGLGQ
UniProt P59242: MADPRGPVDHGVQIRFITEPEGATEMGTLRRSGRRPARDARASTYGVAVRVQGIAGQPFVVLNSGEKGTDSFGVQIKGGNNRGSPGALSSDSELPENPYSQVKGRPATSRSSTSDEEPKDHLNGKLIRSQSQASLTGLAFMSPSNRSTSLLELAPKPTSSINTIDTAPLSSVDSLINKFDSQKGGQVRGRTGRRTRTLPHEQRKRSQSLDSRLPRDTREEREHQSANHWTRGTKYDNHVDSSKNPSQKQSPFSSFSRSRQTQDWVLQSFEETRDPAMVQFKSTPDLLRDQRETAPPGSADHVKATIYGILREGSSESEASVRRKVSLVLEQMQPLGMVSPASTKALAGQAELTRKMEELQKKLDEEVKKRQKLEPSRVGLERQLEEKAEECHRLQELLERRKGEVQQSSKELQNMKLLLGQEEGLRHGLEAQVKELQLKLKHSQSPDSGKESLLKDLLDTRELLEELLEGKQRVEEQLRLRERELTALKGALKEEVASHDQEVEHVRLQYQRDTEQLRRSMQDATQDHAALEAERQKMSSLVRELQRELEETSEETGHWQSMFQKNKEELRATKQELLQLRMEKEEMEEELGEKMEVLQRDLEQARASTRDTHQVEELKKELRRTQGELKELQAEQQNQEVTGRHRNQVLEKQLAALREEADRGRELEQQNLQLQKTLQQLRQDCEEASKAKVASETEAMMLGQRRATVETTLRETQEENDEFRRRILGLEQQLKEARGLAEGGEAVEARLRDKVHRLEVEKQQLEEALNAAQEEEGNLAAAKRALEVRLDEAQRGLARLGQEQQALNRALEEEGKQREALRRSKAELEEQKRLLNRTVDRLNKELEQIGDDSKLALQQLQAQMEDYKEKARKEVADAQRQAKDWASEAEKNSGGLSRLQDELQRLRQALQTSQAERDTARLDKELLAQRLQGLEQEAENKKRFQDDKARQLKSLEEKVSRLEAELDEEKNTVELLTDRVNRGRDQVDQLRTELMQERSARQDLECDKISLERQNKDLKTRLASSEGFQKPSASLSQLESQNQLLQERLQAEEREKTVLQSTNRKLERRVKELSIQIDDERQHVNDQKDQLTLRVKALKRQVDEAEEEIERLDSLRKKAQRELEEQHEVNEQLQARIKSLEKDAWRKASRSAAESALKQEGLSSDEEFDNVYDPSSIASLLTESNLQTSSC
UniProt P60840: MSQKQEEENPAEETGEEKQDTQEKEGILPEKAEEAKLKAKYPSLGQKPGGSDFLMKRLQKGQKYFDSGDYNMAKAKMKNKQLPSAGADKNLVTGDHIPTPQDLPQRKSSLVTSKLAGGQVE
UniProt P58158: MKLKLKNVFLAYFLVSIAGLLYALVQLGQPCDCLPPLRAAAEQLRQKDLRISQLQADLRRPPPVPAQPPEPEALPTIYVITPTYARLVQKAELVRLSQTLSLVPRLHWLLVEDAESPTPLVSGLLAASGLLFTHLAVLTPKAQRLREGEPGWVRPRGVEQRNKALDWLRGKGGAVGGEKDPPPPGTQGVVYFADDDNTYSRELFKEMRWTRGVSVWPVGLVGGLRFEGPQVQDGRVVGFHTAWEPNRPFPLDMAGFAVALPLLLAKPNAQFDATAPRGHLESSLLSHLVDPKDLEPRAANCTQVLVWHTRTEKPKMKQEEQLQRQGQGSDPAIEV
UniProt P56394: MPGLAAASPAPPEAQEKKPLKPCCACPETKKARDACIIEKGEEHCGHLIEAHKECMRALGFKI
UniProt P56380: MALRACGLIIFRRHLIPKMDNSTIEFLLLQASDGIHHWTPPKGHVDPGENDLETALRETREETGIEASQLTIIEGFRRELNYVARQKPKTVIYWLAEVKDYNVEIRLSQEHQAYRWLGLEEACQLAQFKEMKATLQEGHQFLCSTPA
UniProt P59759: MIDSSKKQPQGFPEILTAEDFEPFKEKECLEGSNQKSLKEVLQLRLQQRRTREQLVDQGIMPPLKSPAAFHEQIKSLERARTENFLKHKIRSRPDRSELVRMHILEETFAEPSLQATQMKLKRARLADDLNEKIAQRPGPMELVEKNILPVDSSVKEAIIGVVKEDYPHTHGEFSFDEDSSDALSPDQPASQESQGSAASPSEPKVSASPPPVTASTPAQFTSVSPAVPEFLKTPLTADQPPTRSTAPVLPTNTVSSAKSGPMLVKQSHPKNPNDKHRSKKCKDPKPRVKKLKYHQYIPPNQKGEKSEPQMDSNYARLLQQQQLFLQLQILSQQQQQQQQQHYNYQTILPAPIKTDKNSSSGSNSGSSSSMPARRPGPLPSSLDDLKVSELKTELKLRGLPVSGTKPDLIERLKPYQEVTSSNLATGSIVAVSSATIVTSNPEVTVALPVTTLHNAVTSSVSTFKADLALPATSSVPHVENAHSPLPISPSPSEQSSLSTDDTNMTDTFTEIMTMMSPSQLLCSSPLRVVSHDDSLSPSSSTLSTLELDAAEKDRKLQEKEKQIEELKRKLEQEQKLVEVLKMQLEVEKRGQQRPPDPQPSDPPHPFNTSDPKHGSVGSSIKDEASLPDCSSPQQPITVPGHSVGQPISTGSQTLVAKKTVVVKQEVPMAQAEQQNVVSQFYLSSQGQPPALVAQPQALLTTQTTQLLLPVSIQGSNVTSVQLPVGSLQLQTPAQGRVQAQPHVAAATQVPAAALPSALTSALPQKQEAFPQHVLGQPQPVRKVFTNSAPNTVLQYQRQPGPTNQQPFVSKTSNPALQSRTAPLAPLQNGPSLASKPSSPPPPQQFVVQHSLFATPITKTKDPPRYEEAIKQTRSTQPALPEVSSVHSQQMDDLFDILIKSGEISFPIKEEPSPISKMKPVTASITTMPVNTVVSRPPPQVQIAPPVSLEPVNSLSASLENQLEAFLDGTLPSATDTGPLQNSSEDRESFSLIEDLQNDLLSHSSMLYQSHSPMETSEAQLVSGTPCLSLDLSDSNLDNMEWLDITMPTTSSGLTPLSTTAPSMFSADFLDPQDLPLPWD
UniProt P61460: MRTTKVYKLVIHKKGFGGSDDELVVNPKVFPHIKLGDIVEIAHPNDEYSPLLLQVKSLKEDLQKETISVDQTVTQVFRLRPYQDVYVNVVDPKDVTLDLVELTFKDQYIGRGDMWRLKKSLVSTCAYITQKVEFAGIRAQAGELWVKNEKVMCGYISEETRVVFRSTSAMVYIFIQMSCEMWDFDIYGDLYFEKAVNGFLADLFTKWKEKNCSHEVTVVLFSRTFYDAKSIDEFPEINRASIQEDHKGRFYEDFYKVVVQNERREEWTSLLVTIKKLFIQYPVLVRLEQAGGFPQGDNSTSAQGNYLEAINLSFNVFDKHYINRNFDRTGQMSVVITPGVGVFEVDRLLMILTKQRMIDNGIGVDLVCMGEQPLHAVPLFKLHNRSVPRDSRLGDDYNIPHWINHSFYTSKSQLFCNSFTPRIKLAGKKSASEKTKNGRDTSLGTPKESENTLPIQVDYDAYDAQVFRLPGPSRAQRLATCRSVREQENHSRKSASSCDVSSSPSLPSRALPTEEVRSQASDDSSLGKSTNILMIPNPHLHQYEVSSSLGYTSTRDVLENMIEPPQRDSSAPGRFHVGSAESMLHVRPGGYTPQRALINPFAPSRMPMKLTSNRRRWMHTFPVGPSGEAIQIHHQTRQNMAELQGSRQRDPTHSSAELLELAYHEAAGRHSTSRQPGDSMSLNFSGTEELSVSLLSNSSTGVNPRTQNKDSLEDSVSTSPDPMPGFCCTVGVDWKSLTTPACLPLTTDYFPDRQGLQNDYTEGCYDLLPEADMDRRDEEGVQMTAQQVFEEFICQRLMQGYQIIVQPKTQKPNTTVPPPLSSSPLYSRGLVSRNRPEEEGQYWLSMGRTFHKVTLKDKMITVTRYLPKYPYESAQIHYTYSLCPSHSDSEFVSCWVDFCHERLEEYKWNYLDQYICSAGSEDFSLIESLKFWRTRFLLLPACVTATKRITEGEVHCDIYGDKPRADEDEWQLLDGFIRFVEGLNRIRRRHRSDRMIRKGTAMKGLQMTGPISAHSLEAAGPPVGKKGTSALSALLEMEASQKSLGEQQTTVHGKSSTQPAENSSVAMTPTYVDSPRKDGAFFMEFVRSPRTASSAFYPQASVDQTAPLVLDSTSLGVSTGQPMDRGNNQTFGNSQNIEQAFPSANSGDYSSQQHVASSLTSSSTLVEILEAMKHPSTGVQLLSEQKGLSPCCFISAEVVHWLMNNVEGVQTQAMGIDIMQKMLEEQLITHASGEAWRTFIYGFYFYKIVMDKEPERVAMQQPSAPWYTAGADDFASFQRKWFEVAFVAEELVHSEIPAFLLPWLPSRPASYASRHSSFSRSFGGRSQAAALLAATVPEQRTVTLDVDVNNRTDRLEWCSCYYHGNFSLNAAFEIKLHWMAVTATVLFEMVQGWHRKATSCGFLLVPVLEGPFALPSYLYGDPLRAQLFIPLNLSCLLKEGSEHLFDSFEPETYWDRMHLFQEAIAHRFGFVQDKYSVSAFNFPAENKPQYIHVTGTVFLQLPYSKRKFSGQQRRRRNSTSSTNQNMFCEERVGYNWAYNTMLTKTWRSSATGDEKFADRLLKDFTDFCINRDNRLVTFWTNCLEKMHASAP
UniProt P59279: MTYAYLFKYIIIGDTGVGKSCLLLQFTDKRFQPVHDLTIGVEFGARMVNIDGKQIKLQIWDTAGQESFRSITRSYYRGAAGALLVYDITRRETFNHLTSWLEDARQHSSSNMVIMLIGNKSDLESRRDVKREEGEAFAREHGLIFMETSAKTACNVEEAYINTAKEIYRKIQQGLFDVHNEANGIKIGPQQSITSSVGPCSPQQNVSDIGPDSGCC
UniProt P56379: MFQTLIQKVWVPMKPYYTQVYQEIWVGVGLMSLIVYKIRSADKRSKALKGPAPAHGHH

compound: CN[C@@H]1C[C@H]2O[C@@](C)([C@@H]1OC)n1c3ccccc3c3c4c(c5c6ccccc6n2c5c31)C(=O)NC4 [staurosporine]; assay: log2 fold change of tryptic peptide abundance, ligand vs vehicle (limited proteolysis) (log2 ratio); higher = more trypsin-susceptible (destabilized); details: ligand concentration: 20 uM; sample: mouse liver crude lysate; replicate design: treated separately

Target	log2 fold change
UniProt P61458 (peptide sequence: AVGWNEVEGR, peptide start residue: 22)	-0.297
UniProt P56477 (peptide sequence: KLITVQVVPVAAR, peptide start residue: 411)	-0.744
UniProt P56212 (peptide sequence: YPHLGQKPGGSDFLR, peptide start residue: 36)	0.0705
UniProt P56389 (peptide sequence: KSAYCPYSR, peptide start residue: 27)	-0.477
UniProt P56382 (peptide sequence: QAGLSYIR, peptide start residue: 7)	-0.0445
UniProt P55937 (peptide sequence: RLEEFEGER, peptide start residue: 669)	-0.595
UniProt P61028 (peptide sequence: MNDSNSSGAGGPVKITESR, peptide start residue: 177)	-0.137
UniProt P59242 (peptide sequence: QLAALREEADR, peptide start residue: 653)	0.515
UniProt P59325 (peptide sequence: YVSKELAK, peptide start residue: 360)	-0.34
UniProt P60840 (peptide sequence: EGILPEKAEEAK, peptide start residue: 25)	0.096
UniProt P58158 (peptide sequence: FEGPQVQDGR, peptide start residue: 226)	-0.105
UniProt P54103 (peptide sequence: AFDKFKK, peptide start residue: 521)	-0.401
UniProt P58389 (peptide sequence: LVALLDTLDR, peptide start residue: 77)	-0.279
UniProt P62869 (peptide sequence: ESSTVFELK, peptide start residue: 20)	-0.592
UniProt P56394 (peptide sequence: KPLKPCCACPETK, peptide start residue: 18)	0.835
UniProt P58735 (peptide sequence: FTGPLYYANKDFFLR, peptide start residue: 547)	-0.283
UniProt P59016 (peptide sequence: VDGEYDLKVPR, peptide start residue: 497)	-0.351
UniProt P60762 (peptide sequence: ARVDPTVENEETFMNR, peptide start residue: 177)	-0.315
UniProt P57725 (peptide sequence: ALSEEKEEESGEEALPYR, peptide start residue: 88)	-0.104

Single values from the list:
UniProt P58158 (peptide sequence: FEGPQVQDGR, peptide start residue: 226) | log2 fold change: -0.105
UniProt P59325 (peptide sequence: YVSKELAK, peptide start residue: 360) | log2 fold change: -0.34

(list continues)

Target	log2 fold change
UniProt P56380 (peptide sequence: LSQEHQAYR, peptide start residue: 107)	-0.496
UniProt P56654 (peptide sequence: ATNGMGLAFSK, peptide start residue: 106)	-0.214
UniProt P57722 (peptide sequence: IANATEGSSER, peptide start residue: 329)	-0.315
UniProt P56480 (peptide sequence: IMNVIGEPIDERGPIKTK, peptide start residue: 144)	0.149
UniProt P60824 (peptide sequence: DAMMAMNGK, peptide start residue: 62)	0.165
UniProt P58059 (peptide sequence: YYEKPCR, peptide start residue: 44)	-0.297
UniProt P59114 (peptide sequence: DSVEGICSK, peptide start residue: 354)	-0.354
UniProt P62500 (peptide sequence: SHLMYAVREEVEVLKEQIK, peptide start residue: 688)	-0.17
UniProt P54731 (peptide sequence: HFGSVIAQTIR, peptide start residue: 430)	-0.29
UniProt P62983 (peptide sequence: YYKVDENGK, peptide start residue: 105)	0.0768
UniProt P59759 (peptide sequence: TKDPPRYEEAIK, peptide start residue: 860)	-0.099
UniProt P61460 (peptide sequence: ALPTEEVR, peptide start residue: 510)	-0.117
UniProt P58854 (peptide sequence: DAHSTPYYYAR, peptide start residue: 125)	-0.921
UniProt P59279 (peptide sequence: QHSSSNMVIMLIGNK, peptide start residue: 106)	0.303
UniProt P56812 (peptide sequence: LSNLALVKPEK, peptide start residue: 56)	0.225
UniProt P56379 (peptide sequence: MFQTLIQK, peptide start residue: 1)	0.371
UniProt P55284 (peptide sequence: DTFTIETDPKR, peptide start residue: 302)	-0.896
UniProt P62915 (peptide sequence: APDLFPSDFK, peptide start residue: 296)	-0.205
